The nature of this assay: qHTS Assay for Lipid Storage Modulators in Drosophila S3 Cells.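 On cell number change: cells counted by Cell Tracker Red CMTPX staining in the red channel.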 To be noted: BODIPY lipid droplet fluorescence, 18-24 h; for cell number change: measured here: cell count max response, cells fed with added oleic acid. The procedure, abridged:
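Drosophila S3 cells got compounds at several concentrations plus oleic acid (400 uM solution). Laser-scanning cytometry with 488 nm excitation read lipid droplets at 500-530 nm and cells at 575-640 nm. Percent activity was relative to 20 uM Triacsin C.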
In general terms: In qHTS, concentration-response curves come from the screen itself.

[1] abbreviates: measured here: lipid fluorescence (Fed channel) AC50, cells fed with added oleic acid.
Setting [2] is: measured here: cell number channel AC50, cells fed with added oleic acid.

This note sets out measurements from PubChem BioAssay AID2685 (National Center for Advancing Translational Sciences (NCATS), 2010).

The list shows a part of the results. Shown are side measurements of this screen, not its main read-out; they come without a call. Compounds called inactive in the main read-out are mostly missing here. Words in brackets tell the shape of the fitted curve; partial curves, single points and poor fits give uncertain potencies.

Broadly, the AC50 is the midpoint of the concentration-response curve, whichever way the signal moves. The low end stands for activity at low concentration, the high end for activity only at high concentration.

Take `CCCn1c(N2CCN(CC(=O)c3c(C)n(C)c4ccccc34)CC2)nc2c1c(=O)[nH]c(=O)n2C`: the cell number change was 5.62%. Moreover, the AC50 under setting [1] is 2.59 µM [rising, full curve]. In the case of `Cc1nn(Cc2c(F)cccc2Cl)c(C)c1[N+](=O)[O-]`, the cell number change is -9%. Besides, the half-maximal activity concentration (AC50) under setting [1] is 6.51 µM [rising, single point]. With `Cc1ccc(S(=O)(=O)NCCC(=O)Nc2ccc3c(c2)OCO3)cc1`, the cell number change is -12.6%. Moreover, the AC50 under setting [1] was 0.0651 µM [rising, single point]. Regarding `N#Cc1ccc(NC(=O)Cn2c3[n+](c4ccc(C(F)(F)F)cc42)CCCCC3)cc1`, the cell number change is -14%. Moreover, the AC50 under setting [1] is 35.5 µM [falling, partial curve, poor fit]. In the case of `COc1ccc(/C=N/NC(=O)CCn2cnc(-c3ccccc3)c2-c2ccccc2)cc1OC`, the cell number change is -23.9%. Moreover, under setting [2], the AC50 was 2.91 µM [rising, single point]. Under setting [1], the AC50 is 3.26 µM [rising, single point]. Take `O=C(CCc1nc2ccccc2c(=O)[nH]1)NNC(=O)COc1ccccc1Cl`: the cell number change came to 6.5%. In addition, under setting [1], the AC50 was 0.291 µM [falling, full curve, poor fit]. With `COc1ccc(C2(C)NC(=O)N(CC(=O)Nc3ccc4[nH]c(=O)[nH]c4c3)C2=O)cc1` (centres undefined), the cell number change is -16.5%.

Turning to `CC(=O)Oc1cc(OC(C)=O)c2c(C)cc(=O)oc2c1`, the cell number change worked out at 0.421%.

`CN1N=C(c2ccc(F)c(F)c2)CSC1=NCc1ccccc1`: the cell number change was determined as 67.4%. Further, under setting [2], the AC50 is 20.6 µM [rising, single point]. The AC50 under setting [1] is 0.58 µM [falling, single point]. Consider `COc1ccc2[nH]c(C)c(CCNC(=S)Nc3cccc(C)c3)c2c1`, for which the cell number change stood at 16.4%. The AC50 under setting [1] is 13 µM [rising, partial curve, poor fit].

Consider `O=[N+]([O-])c1cccc(N=NN(CCO)c2cccc([N+](=O)[O-])c2)c1`, for which the cell number change came to 43.6%. Besides, the AC50 under setting [2] is 8.2 µM [rising, partial curve]. Under setting [1], the AC50 is 6.51 µM [rising, single point]. Take `Cc1ccc(NC(=O)c2ccc(NS(=O)(=O)c3cccc4cccnc34)cc2)cc1`: the cell number change amounted to 21.9%. Further, the AC50 under setting [1] is 25.9 µM [rising, single point]. Regarding `CCC(=O)c1ccc(OCC(O)Cn2c(C)nc3ccccc32)cc1` (centres undefined), the cell number change was -107%. Besides, the concentration at half-maximal activity (AC50) under setting [2] was 29.1 µM [falling, single point]. In addition, under setting [1], the AC50 is 8.2 µM [falling, partial curve]. Take `COc1ccc(OC)c(C(C[N+](=O)[O-])c2c(C)cc3ccccn23)c1` (centres undefined): the cell number change is -22.9%. Take `O=C(/C=C/c1ccc([N+](=O)[O-])cc1)NCCc1ccccc1`: the cell number change came to 33.5%. Under setting [2], the AC50 was 32.6 µM [rising, single point]. Also, under setting [1], the AC50 was 32.6 µM [rising, single point]. As for `CCCN(CC(=O)Nc1ccc(F)c(F)c1F)C(=O)CCc1nc2ccccc2c(=O)[nH]1`, the cell number change worked out at 48.3%. In addition, the concentration at half-maximal activity (AC50) under setting [2] was 25.9 µM [rising, single point]. As to `Cc1ccc(C(=O)Nc2nnc(C3=COCCO3)o2)cc1C`, the cell number change came out at 5.6%. Regarding `CCOc1cc(C(C(=O)NCC2CCCO2)N(C(=O)Cn2nnc3ccccc32)c2ccccc2C)ccc1O` (centres undefined), the cell number change stood at 6.58%. For the compound `CC(C)N(C(=S)Nc1cccnc1)c1ccccc1`, the cell number change was 15.2%. The AC50 under setting [1] was 29.1 µM [rising, single point]. For the compound `Cc1cc(C)nc(-n2nc(C)cc2NC(=O)c2cccc(S(=O)(=O)N3CCCCC3)c2)n1`, the cell number change was determined as 10.5%. Further, the AC50 under setting [1] is 0.82 µM [rising, full curve]. Take `O=C(NNC(=O)c1sc2ccccc2c1Cl)Nc1ccc(Cl)cc1`: the cell number change turned out to be 80.7%. Besides, the AC50 under setting [2] was 29.1 µM [rising, single point]. For `O=C(O)c1cc(Cl)c(Cl)cc1C(=O)Nc1cccnc1`, the cell number change is 21.5%. For the same compound, under setting [1], the AC50 was 29.1 µM [falling, single point].

With `CCN(CC(=O)Nc1c(F)cccc1F)C(=O)CCc1nc2ccccc2c(=O)[nH]1`, the cell number change came out at 14.5%. `CCCc1cc(=O)oc2cc(C)cc(OCC(=O)O)c12`: the cell number change was -32.6%. The AC50 under setting [2] is 0.0291 µM [falling, full curve, poor fit].

With `Cc1ccc(-c2nnc(CCC(=O)NCc3csc(C)n3)o2)s1`, the cell number change stood at 19.2%. Further, the AC50 under setting [2] is 4.11 µM [rising, single point]. With `COc1ccc(C)cc1S(=O)(=O)N1CCC2(CC1)OCCN2S(=O)(=O)c1cccs1`, the cell number change is 76.1%. Under setting [2], the AC50 is 7.31 µM [rising, partial curve].

In the case of `CC1CCc2c(nc3ncnn3c2N2CCN(c3ccccc3F)CC2)C1` (centres undefined), the cell number change is 76.2%. Further, the AC50 under setting [2] was 29.1 µM [rising, single point].

For the compound `Cc1ccc(C)c(Nc2nc3c(S(=O)(=O)c4ccccc4)nnn3c3ccccc23)c1`, the AC50 is 0.103 µM [rising, full curve, poor fit] under setting [2] and 0.13 µM [rising, full curve, poor fit] under setting [1].

Take `CCC(C)(C)n1nnnc1C(c1cccc(C#N)c1)N1CCN(c2cc(C)ccc2C)CC1` (centres undefined): the cell number change was -6.1%. For the same compound, the AC50 under setting [1] was 29.1 µM [falling, single point]. As for `COc1ccc(C2=NO[C@@H]3C(=O)N(Cc4ccccc4)C(=O)[C@H]23)c(OC)c1`, the cell number change worked out at 1.17%. Moreover, under setting [1], the AC50 was 0.082 µM [rising, full curve, poor fit]. As to `COc1ccc(-n2c(Cn3c(=O)sc4ccccc43)nnc2SCC(=O)N2CCCC2)cc1`, the cell number change turned out to be 20.4%.

For `CCn1nc(NC(C)=O)c2cc3ccc(C)cc3nc21`, the cell number change was 21.3%. In addition, the AC50 under setting [1] was 4.61 µM [rising, partial curve].

`CCN(CC)S(=O)(=O)c1ccc(N(C)Cc2ccc(C(F)(F)F)cc2)nc1`: the cell number change was -35.1%. The AC50 under setting [2] was 29.1 µM [falling, single point]. For the compound `COc1ccc(NC(=O)N(CCC(C)C)C(C)c2ccccn2)c(OC)c1` (centres undefined), the cell number change was -58.3%. The AC50 under setting [2] is 10.3 µM [falling, partial curve]. The AC50 under setting [1] was 0.651 µM [falling, full curve, poor fit]. For `CSc1sc(C(=O)NNC(C)=O)c2c1C=CCC2`, the cell number change is -24.7%. The AC50 under setting [1] is 4.61 µM [rising, single point]. Consider `O=C1C=C(NCc2ccco2)C2(CCCCC2)O1`, for which the cell number change was -19%. The AC50 under setting [1] is 6.51 µM [falling, single point]. Take `CCOC(=O)c1ccc(CSc2n[nH]c(C)n2)o1`: the cell number change is -5.19%.

On to `CC1CCN(c2ccc3nnc(CCC(=O)Nc4cc(F)ccc4F)n3n2)CC1`, for which the cell number change was found to be 6.11%. For the same compound, the AC50 under setting [1] is 29.1 µM [rising, single point].
